# In article PMC7862700:
# The list shows a part of the results. Construct or isoform of the protein are uncertain.
# Target: T1, ELF2 (UniProt Q15723)
# T1 sequence: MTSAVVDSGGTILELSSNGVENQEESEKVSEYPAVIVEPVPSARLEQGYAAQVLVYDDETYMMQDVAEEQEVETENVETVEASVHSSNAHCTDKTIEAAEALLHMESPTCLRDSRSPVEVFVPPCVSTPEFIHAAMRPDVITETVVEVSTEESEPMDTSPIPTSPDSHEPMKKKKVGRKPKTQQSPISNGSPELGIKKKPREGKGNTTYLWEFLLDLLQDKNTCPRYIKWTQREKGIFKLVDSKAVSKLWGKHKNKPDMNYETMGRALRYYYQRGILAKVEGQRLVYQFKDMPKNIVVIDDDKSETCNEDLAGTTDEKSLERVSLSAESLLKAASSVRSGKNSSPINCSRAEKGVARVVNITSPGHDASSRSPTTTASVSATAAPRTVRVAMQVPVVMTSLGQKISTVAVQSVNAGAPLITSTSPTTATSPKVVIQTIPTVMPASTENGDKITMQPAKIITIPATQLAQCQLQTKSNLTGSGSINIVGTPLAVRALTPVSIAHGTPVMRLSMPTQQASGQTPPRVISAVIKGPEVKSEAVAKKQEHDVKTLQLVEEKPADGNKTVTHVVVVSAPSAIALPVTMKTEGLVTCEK
# Assay: DAPPL (digital affinity profiling via proximity ligation, sequencing)
# Settings: 10 mM Tris-HCl pH 7.5, 50 mM NaCl, 1 mM DTT, 4% glycerol, room temperature, 30 min; GST-TFs on glutathione beads, 16-mer random dsDNA library, 0.1% …; high values mean tight binding; double strand, one strand shown; scale: fold enrichment (6-mer frequency, TF over GST control)
row,Sequence,binding signal
1,TATCCC,1.63
2,ATGTGG,1.17
3,GGCTAA,0.901
4,CTACCA,1.22
5,CGAATC,0.989
6,ATCTTG,1.24
7,GTTAAG,1.02
8,ATTCGA,1.33
9,CAGATT,0.996
10,TTCGAC,1.35
11,AAGACT,1.09
12,GCTAGA,0.944
13,CTTCGT,1.25
14,GCGCTT,1.4
15,TATACC,1.22
16,TTTCTA,1.33
17,ATATAA,1.2
18,AGAGAT,0.883
19,GGAAAA,1.46
20,TCCGTA,1.94

row,Sequence,binding signal
1,CTTAGC,1.17
2,TAACTA,1.27
3,GTTCCT,2.1
4,GTTTTA,1.1
5,CAGATC,0.845
6,TATCCA,1.3
7,ATAACC,1.22
8,TTAGCC,0.956
9,CATAAG,0.913
10,TCAAGT,1.03
11,CCAGCA,0.884
12,CCGCTC,1.49
13,TAGTTC,1.62
14,TTTCTG,1.33
15,CACCTT,1.24
16,GTGTTC,1.18
17,GATGGA,0.856
18,ATCAAC,1.06
19,TGAATC,0.962
20,TTTTTG,1.4
